Source: publication doi:10.1101/2022.04.06.487319 (bioRxiv, 2022)
No constants are given. Whether binding was seen depends on the method and setting. For some of these results: Binding seen in cells or lysates may run through a third protein. Some entries that bind do so weakly or less than the wild type. For some of these results: Sequences can lack the tags named with a protein. Blank lines part the entries; values can stand above or below the molecule they belong to.

Tests used:
[1] = molecular target: T1, strep-Hop1 (SF9 co-expression) (Saccharomyces cerevisiae) (UniProt P20050); test: pull-down
T1 sequence: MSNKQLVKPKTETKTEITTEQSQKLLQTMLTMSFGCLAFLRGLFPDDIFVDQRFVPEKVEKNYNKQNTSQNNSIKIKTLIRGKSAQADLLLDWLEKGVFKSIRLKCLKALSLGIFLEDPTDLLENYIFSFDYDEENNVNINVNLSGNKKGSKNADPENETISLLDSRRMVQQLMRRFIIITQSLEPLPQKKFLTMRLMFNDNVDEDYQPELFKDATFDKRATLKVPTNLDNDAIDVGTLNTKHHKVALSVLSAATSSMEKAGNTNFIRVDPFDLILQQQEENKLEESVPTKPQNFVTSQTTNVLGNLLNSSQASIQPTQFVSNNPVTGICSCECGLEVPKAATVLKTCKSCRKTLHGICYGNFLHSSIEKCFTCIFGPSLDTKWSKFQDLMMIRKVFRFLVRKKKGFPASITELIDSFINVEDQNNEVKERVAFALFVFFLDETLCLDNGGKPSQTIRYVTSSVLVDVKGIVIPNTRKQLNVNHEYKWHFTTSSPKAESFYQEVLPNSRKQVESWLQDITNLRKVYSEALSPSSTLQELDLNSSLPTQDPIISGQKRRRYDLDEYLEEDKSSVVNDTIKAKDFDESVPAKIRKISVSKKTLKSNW

[2] = molecular target: strep-Hop1 (full length, WT, E. coli) (Saccharomyces cerevisiae) (UniProt P20050); test: SEC
[3] = molecular target: T2, strep-Hop1 HORMA domain (Saccharomyces cerevisiae) (UniProt P20050); test: pull-down
T2 sequence: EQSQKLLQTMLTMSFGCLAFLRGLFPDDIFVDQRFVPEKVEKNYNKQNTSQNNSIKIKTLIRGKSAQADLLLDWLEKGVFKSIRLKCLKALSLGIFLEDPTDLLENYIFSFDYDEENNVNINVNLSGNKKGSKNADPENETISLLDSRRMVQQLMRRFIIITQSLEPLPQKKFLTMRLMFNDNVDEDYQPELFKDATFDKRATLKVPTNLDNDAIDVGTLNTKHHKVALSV

[4] = molecular target: T3, Mek1-strep (full-length Mek1 with Twin-StrepII tag) (Saccharomyces cerevisiae) (UniProt P24719); test: pull-down
T3 sequence: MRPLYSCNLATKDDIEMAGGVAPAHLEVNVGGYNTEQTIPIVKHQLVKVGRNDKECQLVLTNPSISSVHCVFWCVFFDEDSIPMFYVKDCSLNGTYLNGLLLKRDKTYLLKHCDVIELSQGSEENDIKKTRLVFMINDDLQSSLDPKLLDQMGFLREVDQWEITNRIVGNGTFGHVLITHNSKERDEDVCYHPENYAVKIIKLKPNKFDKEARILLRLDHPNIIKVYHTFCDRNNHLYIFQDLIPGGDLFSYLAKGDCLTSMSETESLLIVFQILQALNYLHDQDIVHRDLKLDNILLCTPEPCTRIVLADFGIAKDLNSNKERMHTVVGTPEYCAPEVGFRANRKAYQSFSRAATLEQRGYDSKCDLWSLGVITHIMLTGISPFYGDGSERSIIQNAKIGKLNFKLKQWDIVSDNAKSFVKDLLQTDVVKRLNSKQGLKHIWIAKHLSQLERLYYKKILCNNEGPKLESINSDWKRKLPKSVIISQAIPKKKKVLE

[5] = molecular target: T4, GFP-Mek1 (pGAL1::GFP-MEK1) (Saccharomyces cerevisiae) (UniProt P24719); test: co-IP
T4 sequence: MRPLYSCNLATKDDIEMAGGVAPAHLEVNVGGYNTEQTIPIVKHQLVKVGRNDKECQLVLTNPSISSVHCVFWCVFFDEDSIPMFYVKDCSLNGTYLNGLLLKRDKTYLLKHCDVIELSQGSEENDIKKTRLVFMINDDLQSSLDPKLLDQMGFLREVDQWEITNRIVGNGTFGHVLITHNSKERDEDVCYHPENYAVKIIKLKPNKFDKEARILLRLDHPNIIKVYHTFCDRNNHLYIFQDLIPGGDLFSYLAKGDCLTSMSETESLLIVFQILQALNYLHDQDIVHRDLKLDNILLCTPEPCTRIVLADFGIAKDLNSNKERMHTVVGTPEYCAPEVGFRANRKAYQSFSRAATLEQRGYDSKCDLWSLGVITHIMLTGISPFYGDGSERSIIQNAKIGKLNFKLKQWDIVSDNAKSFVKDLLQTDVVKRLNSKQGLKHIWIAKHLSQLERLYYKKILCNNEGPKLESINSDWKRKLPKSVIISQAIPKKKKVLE

Molecule: MBP-Red1^230-345 (from UniProt P14291 230-345) (domain or fragment)
binding [1]: binds

Molecule: MBP-Red1^1-230 (from UniProt P14291 1-230) (domain or fragment)
binding [1]: binds

B3: MBP-Red1^1-362 (insect cells) (domain or fragment, UniProt P14291 1-362)
chain: MEGLKKKIFGVCLKNDLAQTRNETKGIHYGLMTLETSKQLQEFLHLLVIKREVIQNFELLFHIINVAVKITDSNLPSDDIWHFILKLRFSSEINIDEDSKVLNYLLETGIAMENPVSWKCLAVISSILSSVPQSKKIITNLIETEHAKKIGQLFDNIQDLQQGNFLVEILSNCFKKSASNSKKVEKIPQLWQSRSKNKFFFENEFYPFSSKNGSLQTCQFLCNNFMSTLSFTGILRQVSYSGSETLKNLRIFKKKDDENSYFIQCIYNKIYLWLDEKAPLEFERKKIRITKNLKNKIQIKLRQPFHECVRTTADKTALLFNKTKGFQLEFEDEKLGETFFHNVNNIPKISEVQNFLVLDYIE
binding [4]: binds

B4: MBP-Red1 (1-362) WT (E. coli) (domain or fragment, UniProt P14291 1-362)
chain: MEGLKKKIFGVCLKNDLAQTRNETKGIHYGLMTLETSKQLQEFLHLLVIKREVIQNFELLFHIINVAVKITDSNLPSDDIWHFILKLRFSSEINIDEDSKVLNYLLETGIAMENPVSWKCLAVISSILSSVPQSKKIITNLIETEHAKKIGQLFDNIQDLQQGNFLVEILSNCFKKSASNSKKVEKIPQLWQSRSKNKFFFENEFYPFSSKNGSLQTCQFLCNNFMSTLSFTGILRQVSYSGSETLKNLRIFKKKDDENSYFIQCIYNKIYLWLDEKAPLEFERKKIRITKNLKNKIQIKLRQPFHECVRTTADKTALLFNKTKGFQLEFEDEKLGETFFHNVNNIPKISEVQNFLVLDYIE
binding [3]: binds

B5: MBP-Red1^1-230 (domain or fragment, UniProt P14291 1-230)
chain: MEGLKKKIFGVCLKNDLAQTRNETKGIHYGLMTLETSKQLQEFLHLLVIKREVIQNFELLFHIINVAVKITDSNLPSDDIWHFILKLRFSSEINIDEDSKVLNYLLETGIAMENPVSWKCLAVISSILSSVPQSKKIITNLIETEHAKKIGQLFDNIQDLQQGNFLVEILSNCFKKSASNSKKVEKIPQLWQSRSKNKFFFENEFYPFSSKNGSLQTCQFLCNNFMSTLS
binding [4]: binds

B7: 3HA-Red1 (full length, Red1 1-827), pGAL1::3HA-RED1 (protein, UniProt P14291 1-827)
chain: MEGLKKKIFGVCLKNDLAQTRNETKGIHYGLMTLETSKQLQEFLHLLVIKREVIQNFELLFHIINVAVKITDSNLPSDDIWHFILKLRFSSEINIDEDSKVLNYLLETGIAMENPVSWKCLAVISSILSSVPQSKKIITNLIETEHAKKIGQLFDNIQDLQQGNFLVEILSNCFKKSASNSKKVEKIPQLWQSRSKNKFFFENEFYPFSSKNGSLQTCQFLCNNFMSTLSFTGILRQVSYSGSETLKNLRIFKKKDDENSYFIQCIYNKIYLWLDEKAPLEFERKKIRITKNLKNKIQIKLRQPFHECVRTTADKTALLFNKTKGFQLEFEDEKLGETFFHNVNNIPKISEVQNFLVLDYIEEEPENEGEEEEQIGRADEQKEDEEEESLDELSTPMVYPIKSSIPHNHNEKVQLVTPDRSVSIRSDEWDLKSNTEDEEGNVLADLKISSTKETKRQTDYVHIDSEDQSPVVSAQMRKMRRESTKTLEILRQEFKDKDVQNKEDQSEQIQNPFVNTSSLVVGKSCLVNPKEKPNIDQTVVGITELKSNSSIKKRDINILDTIFGQPPSKKQKQFHKKEKKKQQKKLTNFKPIIDVPSQDKRNLRSNAPTKPKSIKVSKLRTDKKVTGEKSSPETAAEKVDDQTVRSNDEQAMSRATKEKCFPDVNEGKEITKDDAKVSLESKKNNETFVDSSVVEKHTPPDKDCNNCNITDILESTTVIDLQSPHGLSAPGQNTFTNKLQEQIYSSINHFSNELVRKISIINQELNKKILKELSEKYQKLFSELQDNFQNDTNEMLKFMGEIKDMMNLPEDQLVHAIRTRKFDNNKR
binding [5]: binds

The next lines start with the values.

binding [2]: no binding
B1: strep-Hop1 (full length, WT, E. coli) (protein, UniProt P20050 1-605)
chain: MSNKQLVKPKTETKTEITTEQSQKLLQTMLTMSFGCLAFLRGLFPDDIFVDQRFVPEKVEKNYNKQNTSQNNSIKIKTLIRGKSAQADLLLDWLEKGVFKSIRLKCLKALSLGIFLEDPTDLLENYIFSFDYDEENNVNINVNLSGNKKGSKNADPENETISLLDSRRMVQQLMRRFIIITQSLEPLPQKKFLTMRLMFNDNVDEDYQPELFKDATFDKRATLKVPTNLDNDAIDVGTLNTKHHKVALSVLSAATSSMEKAGNTNFIRVDPFDLILQQQEENKLEESVPTKPQNFVTSQTTNVLGNLLNSSQASIQPTQFVSNNPVTGICSCECGLEVPKAATVLKTCKSCRKTLHGICYGNFLHSSIEKCFTCIFGPSLDTKWSKFQDLMMIRKVFRFLVRKKKGFPASITELIDSFINVEDQNNEVKERVAFALFVFFLDETLCLDNGGKPSQTIRYVTSSVLVDVKGIVIPNTRKQLNVNHEYKWHFTTSSPKAESFYQEVLPNSRKQVESWLQDITNLRKVYSEALSPSSTLQELDLNSSLPTQDPIISGQKRRRYDLDEYLEEDKSSVVNDTIKAKDFDESVPAKIRKISVSKKTLKSNW

binding [3]: binds
B2: MBP-Red1 (340-362), wild-type closure motif (peptide, UniProt P14291 340-362, looked up)
chain: FHNVNNIPKISEVQNFLVLDYIE

binding [4]: binds
B6: MBP-Red1^230-345 (domain or fragment, UniProt P14291 230-345)
chain: SFTGILRQVSYSGSETLKNLRIFKKKDDENSYFIQCIYNKIYLWLDEKAPLEFERKKIRITKNLKNKIQIKLRQPFHECVRTTADKTALLFNKTKGFQLEFEDEKLGETFFHNVNN

binding [4]: binds
B8: MBP-Red1^1-819/I743R (domain or fragment, UniProt P14291 1-819)
chain: MEGLKKKIFGVCLKNDLAQTRNETKGIHYGLMTLETSKQLQEFLHLLVIKREVIQNFELLFHIINVAVKITDSNLPSDDIWHFILKLRFSSEINIDEDSKVLNYLLETGIAMENPVSWKCLAVISSILSSVPQSKKIITNLIETEHAKKIGQLFDNIQDLQQGNFLVEILSNCFKKSASNSKKVEKIPQLWQSRSKNKFFFENEFYPFSSKNGSLQTCQFLCNNFMSTLSFTGILRQVSYSGSETLKNLRIFKKKDDENSYFIQCIYNKIYLWLDEKAPLEFERKKIRITKNLKNKIQIKLRQPFHECVRTTADKTALLFNKTKGFQLEFEDEKLGETFFHNVNNIPKISEVQNFLVLDYIEEEPENEGEEEEQIGRADEQKEDEEEESLDELSTPMVYPIKSSIPHNHNEKVQLVTPDRSVSIRSDEWDLKSNTEDEEGNVLADLKISSTKETKRQTDYVHIDSEDQSPVVSAQMRKMRRESTKTLEILRQEFKDKDVQNKEDQSEQIQNPFVNTSSLVVGKSCLVNPKEKPNIDQTVVGITELKSNSSIKKRDINILDTIFGQPPSKKQKQFHKKEKKKQQKKLTNFKPIIDVPSQDKRNLRSNAPTKPKSIKVSKLRTDKKVTGEKSSPETAAEKVDDQTVRSNDEQAMSRATKEKCFPDVNEGKEITKDDAKVSLESKKNNETFVDSSVVEKHTPPDKDCNNCNITDILESTTVIDLQSPHGLSAPGQNTFTNKLQEQRYSSINHFSNELVRKISIINQELNKKILKELSEKYQKLFSELQDNFQNDTNEMLKFMGEIKDMMNLPEDQLVHAIRT
